Laboratory results: patent publication US12351855B2, “Bioelectronic circuits, systems and methods for preparing and using them” (priority 2019, dated 2025)

Test: Conductance of biotinylated ϕ29 polymerase wired into streptavidin-functionalized palladium junction

B1: bis-biotinylated polymerase: exonuclease-deleted ϕ29 polymerase with biotinylated Avitags inserted between G111/K112 and E279/D280 (protein)
chain: MKHMPRKMYSCAFATTTKVEDCRVWAYGYMNIEDHSEYKIGNSLDEFMAWVLKVQADLYFHNLKFDGAFIINWLERNGFKWSADGLPNTYNTIISRMGQWYMIDICLGYKGGLNDIFEAQKIEWHEKRKIHTVIYDSLKKLPFPVKKIAKDFKLTVLKGDIDYHKERPVGYKITPEEYAYIKNDIQIIAEALLIQFKQGLDRMTAGSDSLKGFKDIITTKKFKKVFPTLSLGLDKEVRYAYRGGFTWLNDRFKEKEIGEGMVFDVNSLYPAQMYSRLLPYGEPIVFEGKYVWDEGLNDIFEAQKIEWHEDYPLHIQHIRCEFELKEGYIPTIQIKRSRFYKGNEYLKSSGGEIADLWLSNVDLELMKEHYDLYNVEYISGLKFKATTGLFKDFIDKWTYIKTTSEGAIKQLAKLMLNSLYGKFASNPDVTGKVPYLKENGALGFRLGEEETKDPVYTPMGVFITAWARYTTITAAQACYDRIIYCDTDSIHLTGTEIPDVIKDIVDPKKLGYWAHESTFKRAKYLRQKTYIQDIYMKEVDGKLVEGSPDDYTDIKFSVKCAGMTDKIKKEVTFENFKVGFSRKMKPKPVQVPGGVVLVDDTFTIK
current after formation of streptavidin-ϕ29 polymerase contact (at 50 mV bias): about 60 pA | highest conductance feature (thiolated streptavidin on Pd electrodes, 50 mV bias): about 4 nS
